PubChem BioAssay AID1259405, NCATS – 2018
Test: 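Knock-downs that lift recombinant protein yield in hamster ovary cells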 (primary screen). Cells: Chinese hamster CHO-K1 ovary cells with stable secreted eGFP expression. Reagent: single siRNA against mouse genes, 0.8 pmol siRNA per well (2 µl of 400 nM stock). Timing: 3 days. Read-out: 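Per-well intracellular GFP measured by laser scanning cytometry, plus viability from ATP luminescence, each relative to plate median of non-targeting control wells, in %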. Direction: GFP, % of control: higher = more GFP per well, higher productivity; viability (ATP), % of control: higher = more viable cells (more ATP). Hit rule: 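Called active when intracellular GFP, relative to negative control, is at or above 120%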.
The deposit covers about 50,000 reagents; below is a part drawn at random. In the full data, about 4,000 (8%) are marked active. 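Mouse siRNA library applied to hamster cells; one well for each siRNA.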 Unmarked entries are inactive. The numbers tell different reagents against one gene apart.

gene | siRNA no. | GFP, % of control | viability (ATP), % of control
Mnx1 (motor neuron and pancreas homeobox 1) | 1 | 111 | 103
Mnx1 (motor neuron and pancreas homeobox 1) | 2 | 94.8 | 101
Mnx1 (motor neuron and pancreas homeobox 1) | 3 | 121 (active) | 92.2
Hacd3 (3-hydroxyacyl-CoA dehydratase 3) | 1 | 83 | 37.9
Hacd3 (3-hydroxyacyl-CoA dehydratase 3) | 2 | 43.6 | 39.3
Hacd3 (3-hydroxyacyl-CoA dehydratase 3) | 3 | 85.5 | 103
Zfp53 (zinc finger protein 53) | 1 | 43.1 | 52.4
Zfp53 (zinc finger protein 53) | 2 | 64.5 | 72.7
Zfp53 (zinc finger protein 53) | 3 | 85.3 | 82.6
Sart3 (squamous cell carcinoma antigen recognized by T cells 3) | 1 | 69.4 | 80
Sart3 (squamous cell carcinoma antigen recognized by T cells 3) | 2 | 85.7 | 84.9
Sart3 (squamous cell carcinoma antigen recognized by T cells 3) | 3 | 63.2 | 64.5

Sorted by “GFP, % of control” (highest first): some entries from above
gene | siRNA no. | GFP, % of control | viability (ATP), % of control
Sart3 (squamous cell carcinoma antigen recognized by T cells 3) | 2 | 85.7 | 84.9
Zfp53 (zinc finger protein 53) | 3 | 85.3 | 82.6
Sart3 (squamous cell carcinoma antigen recognized by T cells 3) | 1 | 69.4 | 80
Zfp53 (zinc finger protein 53) | 2 | 64.5 | 72.7
Zfp53 (zinc finger protein 53) | 1 | 43.1 | 52.4

The list goes on:
gene | siRNA no. | GFP, % of control | viability (ATP), % of control
Anapc15 (anaphase promoting complex C subunit 15) | 1 | 128 (active) | 70
Anapc15 (anaphase promoting complex C subunit 15) | 2 | 24 | 29.8
Anapc15 (anaphase promoting complex C subunit 15) | 3 | 71.3 | 84
Taf1a | 1 | 96.1 | 81.1
Taf1a | 2 | 132 (active) | 131
Taf1a | 3 | 247 (active) | 150
Taf1a | 4 | 89.1 | 108
Taf1a | 5 | 104 | 88.5
Taf1a | 6 | 93.4 | 81.4
Mindy1 (MINDY lysine 48 deubiquitinase 1) | 1 | 43.7 | 43
Mindy1 (MINDY lysine 48 deubiquitinase 1) | 2 | 33.1 | 60.3
Mindy1 (MINDY lysine 48 deubiquitinase 1) | 3 | 53 | 101
Ranbp3l (RAN binding protein 3-like) | 1 | 106 | 82.5
Ranbp3l (RAN binding protein 3-like) | 2 | 69.9 | 79.3
Ranbp3l (RAN binding protein 3-like) | 3 | 77.3 | 56.2
1700010I14Rik (RIKEN cDNA 1700010I14 gene) | 1 | 95.6 | 87.2
1700010I14Rik (RIKEN cDNA 1700010I14 gene) | 2 | 72.5 | 81.3
1700010I14Rik (RIKEN cDNA 1700010I14 gene) | 3 | 24.7 | 42.7
Psors1c2 (psoriasis susceptibility 1 candidate 2 (human)) | 1 | 98.5 | 43.6
Psors1c2 (psoriasis susceptibility 1 candidate 2 (human)) | 2 | 73.6 | 61.8
Psors1c2 (psoriasis susceptibility 1 candidate 2 (human)) | 3 | 136 (active) | 92.5
Tssk5 (testis-specific serine kinase 5) | 1 | 57 | 92.1
Tssk5 (testis-specific serine kinase 5) | 2 | 58.9 | 68.7
Tssk5 (testis-specific serine kinase 5) | 3 | 94.3 | 90.8
